Laboratory results from US20080227698A1, “OLIGOPEPTIDES FOR TREATMENT OF OSTEOPOROSIS AND OTHER BONE DISEASES AND METHODS THEREOF” (Washington University, priority 2005, published 2008).
Results are given in words; binding and its absence hold for the method and conditions named. Some binding calls cover weakened binding; strength is not graded here.

Protein sequences, listed by entry. Tags and fused reporters are not part of them. Residues count along the entry.
UniProt O75581, residues 20-1613: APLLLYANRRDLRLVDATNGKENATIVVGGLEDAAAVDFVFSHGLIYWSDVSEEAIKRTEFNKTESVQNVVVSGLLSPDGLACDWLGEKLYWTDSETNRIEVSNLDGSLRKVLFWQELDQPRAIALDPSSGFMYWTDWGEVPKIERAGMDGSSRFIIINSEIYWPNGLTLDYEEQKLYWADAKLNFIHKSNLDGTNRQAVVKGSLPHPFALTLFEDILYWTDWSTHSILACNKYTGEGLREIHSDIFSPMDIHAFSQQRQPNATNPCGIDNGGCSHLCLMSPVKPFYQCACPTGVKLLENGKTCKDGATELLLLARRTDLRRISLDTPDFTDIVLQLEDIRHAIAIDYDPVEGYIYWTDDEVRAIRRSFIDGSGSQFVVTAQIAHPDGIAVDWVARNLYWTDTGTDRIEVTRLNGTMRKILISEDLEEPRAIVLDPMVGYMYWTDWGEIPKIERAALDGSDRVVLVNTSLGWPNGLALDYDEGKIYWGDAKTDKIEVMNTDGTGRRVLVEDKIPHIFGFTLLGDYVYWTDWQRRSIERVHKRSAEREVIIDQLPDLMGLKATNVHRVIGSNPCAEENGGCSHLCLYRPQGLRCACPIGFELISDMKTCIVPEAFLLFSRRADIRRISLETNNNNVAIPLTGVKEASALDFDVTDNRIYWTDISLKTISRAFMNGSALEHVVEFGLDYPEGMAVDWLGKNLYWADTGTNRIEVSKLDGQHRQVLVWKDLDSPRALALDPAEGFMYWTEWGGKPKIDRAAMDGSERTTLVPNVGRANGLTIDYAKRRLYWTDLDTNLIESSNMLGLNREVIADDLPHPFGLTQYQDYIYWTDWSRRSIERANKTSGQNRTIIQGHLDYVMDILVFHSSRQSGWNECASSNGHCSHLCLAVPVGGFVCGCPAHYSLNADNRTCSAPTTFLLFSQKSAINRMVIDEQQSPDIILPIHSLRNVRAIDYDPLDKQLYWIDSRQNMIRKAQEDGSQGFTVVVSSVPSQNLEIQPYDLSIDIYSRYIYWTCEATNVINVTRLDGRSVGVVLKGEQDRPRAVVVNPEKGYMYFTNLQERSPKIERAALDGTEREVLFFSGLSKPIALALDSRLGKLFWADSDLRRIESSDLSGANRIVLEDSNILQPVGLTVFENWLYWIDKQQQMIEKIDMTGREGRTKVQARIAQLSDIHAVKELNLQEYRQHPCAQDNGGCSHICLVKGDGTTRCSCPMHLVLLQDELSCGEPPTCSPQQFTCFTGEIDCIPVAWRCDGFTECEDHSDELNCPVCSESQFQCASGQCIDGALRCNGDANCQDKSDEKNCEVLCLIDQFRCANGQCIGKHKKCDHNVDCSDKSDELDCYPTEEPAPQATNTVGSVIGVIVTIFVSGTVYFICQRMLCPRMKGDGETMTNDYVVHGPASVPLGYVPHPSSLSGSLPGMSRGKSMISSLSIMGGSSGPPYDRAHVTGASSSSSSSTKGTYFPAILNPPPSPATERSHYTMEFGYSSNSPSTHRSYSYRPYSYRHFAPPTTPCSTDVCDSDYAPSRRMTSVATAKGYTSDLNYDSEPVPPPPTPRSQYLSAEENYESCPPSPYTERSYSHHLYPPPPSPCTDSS

How the values were obtained:
[1] = target: LRP6 on LRP6-transduced HT1080 cells (HA-tagged) (UniProt O75581); assay: 125I-Mesd (150-195) binding to LRP6-transduced HT1080 cells (FIG. 4)
[2] = target: LRP6 on LRP6-transduced HT1080 cells (HA-tagged) (UniProt O75581); assay: 125I-Mesd (150-195), 5 nM, binding to LRP6-transduced HT1080 cells, 3 h at 4 C

Binder: QMYPGKGGGSKEKNKTKPEKAKKKEGDPKPRASKEDNRAGSRREDL (peptide, not shown: small tags and cut ends, 125I-iodinated when used as radioligand) [Mesd (150-195)]
- binding [1]: binds
- binding [2]: binds
